Test results reported in PubChem BioAssay AID485314 (National Center for Advancing Translational Sciences (NCATS), 2010).
In all, about 340,000 compounds went through this assay and about 4,500 (1.3%) were called active. The inconclusive results got no clear call from the source; some entries with a clear call stand among them for comparison. Calls follow the shape of the dose curve; as a rule, active = well fitted inhibition curve with a large enough effect; inconclusive = small, poorly fitted or top-dose-only effect, or another doubt; inactive = no such curve, though single readings can be large or run the other way. Potencies beside an inconclusive call are fits to weak or partial responses and may not hold up.

Each compound was assayed against DNA polymerase beta (Homo sapiens) (UniProt P06746) (assay: qHTS Assay for Inhibitors of DNA Polymerase Beta). Details: Pol beta primer extension/strand displacement, fluorescence kinetic; activity change, negative = inhibition: at 114 µM (top of the series).
How it was run: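 Values derive from four-parameter Hill fits of normalized kinetic data: reads at 0 and 10 min following addition of 50 nM substrate to 10 nM Pol beta preincubated 15 min with compound.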
% is scaled to controls: 0 for no effect and ±100 for the full control effect; potency is read from the fitted curve at half-maximal effect.

Potency, inactive:
O=C1OC(c2ccc(F)cc2)=C/C1=C\c1ccc(O)cc1, CC(C)C(=O)Nc1ccc(C(=O)NNC(=S)NC(=O)c2ccco2)cc1, Cc1ccc2sc(N3CCN(C(=O)C4COc5ccccc5O4)CC3)nc2c1C (stereo unspecified), CCC(=O)N1CCc2cc(S(=O)(=O)NC(C(=O)NCc3ccc(OC)cc3)C(C)C)ccc21 (stereo unspecified), COc1cccc(N2C(=O)CSC23C(=O)N(CC(=O)Nc2cc(C)ccc2C)c2ccccc23)c1 (stereo unspecified), CCOC(=O)c1sc(NC(=O)CSc2nc3ccccc3o2)c(C(=O)OCC)c1C, COc1ccc(CCNc2nc3c(c(=O)n(C)c(=O)n3C)n2Cc2ccc(F)cc2)cc1OC, COc1ccc(CCNC(=O)c2ccc3c(c2)nc2n3CCOC2)cc1OC, Cc1cccc(C)c1NC(=O)c1ccc2nc(CCc3ccccc3)oc2c1, O=C(NCCCO)C(=O)Nc1c2c(nn1-c1ccc(F)cc1)CSC2, CN1C[C@@H]2C(c3ccc(C(F)(F)F)cc3)C3(c4ccccc4)CC2(C3)[C@H]1c1ccccc1 (stereo partly specified), Cc1ccc(CCNC(=O)c2cc3ccccn3n2)cc1, Cc1ccc2scc(N3CCCC(C)C3)c(=O)c2c1 (stereo unspecified), COc1ccc(-n2c(SCC(=O)Nc3ccc(Br)cc3)nc(O)cc2=O)cc1, CCS(=O)(=O)N1CC(=O)N(c2cc(Cl)ccc2C)C(C)(C(=O)NC2CCCCCC2)C1 (stereo unspecified), COc1ccc(/C=C\C(=O)c2c(O)ccc3c(C)cc(=O)oc23)cc1, Cc1nc(S/C(=C/c2ccc(OCc3ccc(C(=O)O)cc3)cc2)C(=O)O)n[nH]1, Cc1nc2cccnc2n1-c1cccc(C(=O)NCc2cccc(Cl)c2)c1, O=C(CNCc1cccs1)Nc1ccc(OC(F)(F)F)cc1, COc1ccc(-c2nnn(CC(=O)N(CC(=O)NC3CCCC3)c3ccccc3)n2)cc1OC, CC(C)=CC(=O)Nc1nnc(C)s1, CC(C)(C)[C@@H]1C=C(C(=O)N2CCOCC2)O[C@H](OCc2ccc(CO)cc2)C1, COc1ccc(/C=C2\SC(=S)N(CCC(=O)NC3=NCCS3)C2=O)cc1OC

Potency, inconclusive:
COc1ccc2[nH]cc(CCNC(=O)Nc3ccccc3C)c2c1 35.5 µM [inhibitor, single point], COc1ccc(OC)c(CCNC(=O)CCCc2nnc3n(C)c(=O)c4sccc4n23)c1 39.8 µM [inhibitor, single point], CC(NC(=O)COc1ccccc1Cl)c1ccccc1 (stereo unspecified) 3.55 µM [inhibitor, partial curve, poor fit], COc1cccc(/C=C2/C(=O)NN(c3ccc(Br)cc3)C2=O)c1O 20 µM [inhibitor, single point], CCCCNC(=O)c1sc2nc(C)cc(COC)c2c1-n1cccc1 89.1 µM [inhibitor, single point], CCc1ccc(-c2csc(NC(=O)C3CC(=O)N(c4ccc5c(c4)OCCO5)C3)n2)cc1 (stereo unspecified) 28.2 µM [inhibitor, full curve], CC(C)c1ccc(S(=O)(=O)N2CCC3(CC2)OCCO3)cc1 39.8 µM [inhibitor, partial curve], COc1ccc(Nc2nc(N3CCCCC3)nc3ccccc23)c(OC)c1 39.8 µM [inhibitor, single point], COc1cc(NC(=O)CSc2ccc(-c3ccco3)nn2)cc(OC)c1 44.7 µM [inhibitor, partial curve], O=C(Nc1ccc2nccnc2c1)Nc1ccccc1Cl 50.1 µM [inhibitor, partial curve, poor fit], CCC(=O)c1c[nH]c(C(=O)N2CCOCC2)c1 89.1 µM [inhibitor, single point], O=C(Nc1cccc(S(=O)(=O)N2CCCCC2)c1)c1ccc([N+](=O)[O-])o1 0.126 µM [inhibitor, full curve, poor fit], CCn1c(C)nc2cc(C(=O)N/N=C/c3ccc(O)cc3)ccc21 44.7 µM [inhibitor, partial curve], O=C(Nc1nc(-c2ccccn2)cs1)c1cccc(-n2cnnn2)c1 12.6 µM [inhibitor, partial curve], COc1ccc(-c2nn(-c3ccccc3)cc2/C=C(\C#N)C(N)=O)cc1[N+](=O)[O-] 14.1 µM [inhibitor, partial curve], Cc1ccccc1-c1nnn(CC(=O)c2ccc(S(=O)(=O)N3CCCC3)cc2)n1 5.01 µM [inhibitor, full curve], CCn1c2ccccc2c2cc(Nc3cc(C)nc4ncnn34)ccc21 20 µM [inhibitor, full curve], CC(=O)Nc1ccc(S(=O)(=O)NC2(C(F)(F)F)C(=O)Nc3c2c(=O)[nH]c(=O)n3-c2ccc(C)cc2)cc1 (stereo unspecified) 39.8 µM [inhibitor, partial curve], CCOCCCNC(=O)C(c1ccc(OC)cc1)N(Cc1cccs1)C(=O)CNC(C)=O (stereo unspecified) 2.51 µM [inhibitor, full curve, poor fit], COC(=O)C1=C(C)Nc2sc(C(N)=O)c(N)c2C1c1ccncc1 (stereo unspecified) 28.2 µM [inhibitor, single point], Cn1c(=O)n(C)c2cc(CNCc3ccccc3Cl)ccc21 89.1 µM [inhibitor, single point], CCCn1c(=N)c(C(=O)NC(C)c2ccccc2)cc2c(=O)n3ccccc3nc21 (stereo unspecified) 79.4 µM [inhibitor, single point], CC(C)CCN1CCN(Cc2cccc(-n3cccn3)c2)CC1CCO (stereo unspecified) 3.55 µM [inhibitor, single point], Cc1ccc(S(=O)(=O)NCC2CCC(C(=O)NCc3ccco3)CC2)cc1 (stereo unspecified) 0.562 µM [inhibitor, full curve, poor fit], Cc1ccc(-n2nc3c(N4CCCC(C(=O)NCc5ccccc5C)C4)nnc(C)c3c2C)cc1 (stereo unspecified) 79.4 µM [inhibitor, single point], Cc1cccc(N2CCN(S(=O)(=O)c3ccc4c(c3)CCC(=O)N4)CC2C)c1 (stereo unspecified) 89.1 µM [inhibitor, single point], CCn1cnc2c1c(=O)n(CC(=O)Nc1ccc3c(c1)OC(F)(F)O3)c(=O)n2Cc1ccccc1 100 µM [inhibitor, single point], CN1CCN(Cc2oc(CO)cc(=O)c2O)CC1 31.6 µM [inhibitor, single point], CCn1nc(C)c(C2C(C#N)=C(N)OC3=C2C(=O)CCC3)c1C (stereo unspecified) 89.1 µM [inhibitor, single point], CO/N=C/c1ccc(N2CCN(C(=O)c3cccc(C(F)(F)F)c3)CC2)c([N+](=O)[O-])c1 89.1 µM [inhibitor, single point], COC(=O)Oc1ccc(/C=N/NC(=O)CSCc2ccc(Cl)cc2)cc1OC 89.1 µM [inhibitor, single point], CCC(=O)Nc1ccc(S(=O)(=O)NCC2CCCO2)cc1 (stereo unspecified) 79.4 µM [inhibitor, single point], Cc1c(Cl)c(C(=O)N2CCCCCC2)nn1C 28.2 µM [inhibitor, full curve, poor fit], Cc1ccn2cc(CNS(=O)(=O)c3ccc(Cl)s3)nc2c1 31.6 µM [inhibitor, single point], CN(C)S(=O)(=O)c1ccc(N)c([N+](=O)[O-])c1 89.1 µM [inhibitor, single point], O=C(CCS(=O)(=O)Cc1ccccc1)NCc1ccco1 1.58 µM [inhibitor, full curve], Cc1ccc(/C(O)=C2\C(=O)C(=O)N(C)C2c2cccc([N+](=O)[O-])c2)cc1 (stereo unspecified) 63.1 µM [inhibitor, single point], CCn1cc(CN(C)C(=O)/C=C/c2ccc([N+](=O)[O-])cc2)c(C)n1 0.141 µM [inhibitor, full curve, poor fit], CCOC(=O)C1CCN(C(=O)c2ccc(C)c(NC(=O)c3nsc4ccccc34)c2)CC1 89.1 µM [inhibitor, single point], CN(C)c1ccc(C(=S)NCc2ccco2)cc1 17.8 µM [inhibitor, full curve]

Potency, active:
O=c1c(Cl)c(N/N=C/c2ccc(Cl)cc2)cnn1-c1ccccc1 17.8 µM, Cc1cccc(OCCn2nnc3sc4c(c3c2=O)CCCC4)c1 20 µM, CC(C)c1ccc(NS(=O)(=O)c2ccc3[nH]cc(C(=O)NC4CCCCC4)c(=O)c3c2)cc1 25.1 µM, O=[N+]([O-])c1cc(CN2CCOCC2)c2cccnc2c1O 2.51 µM, Cc1ccc(/C=c2/sc3nnc(-c4ccccc4Cl)n3c2=O)o1 39.8 µM, COc1ccc2cc(OCC(=O)NNC(=O)Nc3ccc(OC)c(OC)c3)ccc2c1 50.1 µM

Activity change, negative = inhibition, inconclusive:
Cc1[nH]c2ccccc2c1/C=N/NC(=O)c1cc(C(C)C)[nH]n1 -39.4% [inhibitor], Cc1ccccc1NC(=O)Cn1nc(-c2ccc(Cl)s2)ccc1=O -83.9% [inhibitor]
